Assay results as given in article doi:10.1101/390351.
These are yes or no findings as the source states them, for the method shown. Binding seen in cells or lysates may run through a third protein. These calls come from enrichment with a bait or labelling near it, and not all partners need be listed.

Protein sequences, listed by entry. Tags and fused reporters are not part of them.
UniProt Q8C863: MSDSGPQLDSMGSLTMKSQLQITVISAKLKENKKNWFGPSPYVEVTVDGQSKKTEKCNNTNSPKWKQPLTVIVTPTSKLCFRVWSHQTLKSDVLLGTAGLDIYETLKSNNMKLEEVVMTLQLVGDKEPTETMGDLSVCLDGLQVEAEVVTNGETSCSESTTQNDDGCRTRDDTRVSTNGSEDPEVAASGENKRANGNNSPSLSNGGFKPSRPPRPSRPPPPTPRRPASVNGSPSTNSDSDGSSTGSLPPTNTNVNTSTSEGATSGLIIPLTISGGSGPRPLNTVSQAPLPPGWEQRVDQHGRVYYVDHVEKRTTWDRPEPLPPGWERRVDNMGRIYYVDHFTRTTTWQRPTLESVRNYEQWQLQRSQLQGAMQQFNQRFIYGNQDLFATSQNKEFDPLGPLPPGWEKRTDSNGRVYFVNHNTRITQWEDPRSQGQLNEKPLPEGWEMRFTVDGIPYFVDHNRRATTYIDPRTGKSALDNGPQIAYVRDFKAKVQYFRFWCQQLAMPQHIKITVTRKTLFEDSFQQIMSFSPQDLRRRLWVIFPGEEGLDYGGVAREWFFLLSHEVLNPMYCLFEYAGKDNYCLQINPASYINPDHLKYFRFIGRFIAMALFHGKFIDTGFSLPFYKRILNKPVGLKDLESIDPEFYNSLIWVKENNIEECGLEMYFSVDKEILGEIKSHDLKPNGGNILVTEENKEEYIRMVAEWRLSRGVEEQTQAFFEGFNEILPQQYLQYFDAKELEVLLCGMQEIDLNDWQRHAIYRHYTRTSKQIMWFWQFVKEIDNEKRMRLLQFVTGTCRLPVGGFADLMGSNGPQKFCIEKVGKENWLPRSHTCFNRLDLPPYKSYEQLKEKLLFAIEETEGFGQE
UniProt P62259: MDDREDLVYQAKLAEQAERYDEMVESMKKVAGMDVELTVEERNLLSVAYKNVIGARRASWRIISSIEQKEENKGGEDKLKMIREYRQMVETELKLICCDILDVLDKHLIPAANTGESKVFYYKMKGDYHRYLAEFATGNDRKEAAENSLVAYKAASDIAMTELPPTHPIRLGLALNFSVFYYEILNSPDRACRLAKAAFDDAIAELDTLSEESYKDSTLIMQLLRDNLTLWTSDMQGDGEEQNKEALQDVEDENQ
UniProt P63101: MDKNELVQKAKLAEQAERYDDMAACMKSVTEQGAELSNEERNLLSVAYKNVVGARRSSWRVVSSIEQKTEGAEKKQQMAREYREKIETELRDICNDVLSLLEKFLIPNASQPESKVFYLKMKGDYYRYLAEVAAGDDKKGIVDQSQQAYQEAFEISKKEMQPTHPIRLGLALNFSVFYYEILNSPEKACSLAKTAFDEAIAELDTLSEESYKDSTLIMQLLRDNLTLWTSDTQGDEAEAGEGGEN

T1: Cyclin B3 (mouse (endogenous in MII oocytes)) (UniProt Q810T2)
T1 sequence: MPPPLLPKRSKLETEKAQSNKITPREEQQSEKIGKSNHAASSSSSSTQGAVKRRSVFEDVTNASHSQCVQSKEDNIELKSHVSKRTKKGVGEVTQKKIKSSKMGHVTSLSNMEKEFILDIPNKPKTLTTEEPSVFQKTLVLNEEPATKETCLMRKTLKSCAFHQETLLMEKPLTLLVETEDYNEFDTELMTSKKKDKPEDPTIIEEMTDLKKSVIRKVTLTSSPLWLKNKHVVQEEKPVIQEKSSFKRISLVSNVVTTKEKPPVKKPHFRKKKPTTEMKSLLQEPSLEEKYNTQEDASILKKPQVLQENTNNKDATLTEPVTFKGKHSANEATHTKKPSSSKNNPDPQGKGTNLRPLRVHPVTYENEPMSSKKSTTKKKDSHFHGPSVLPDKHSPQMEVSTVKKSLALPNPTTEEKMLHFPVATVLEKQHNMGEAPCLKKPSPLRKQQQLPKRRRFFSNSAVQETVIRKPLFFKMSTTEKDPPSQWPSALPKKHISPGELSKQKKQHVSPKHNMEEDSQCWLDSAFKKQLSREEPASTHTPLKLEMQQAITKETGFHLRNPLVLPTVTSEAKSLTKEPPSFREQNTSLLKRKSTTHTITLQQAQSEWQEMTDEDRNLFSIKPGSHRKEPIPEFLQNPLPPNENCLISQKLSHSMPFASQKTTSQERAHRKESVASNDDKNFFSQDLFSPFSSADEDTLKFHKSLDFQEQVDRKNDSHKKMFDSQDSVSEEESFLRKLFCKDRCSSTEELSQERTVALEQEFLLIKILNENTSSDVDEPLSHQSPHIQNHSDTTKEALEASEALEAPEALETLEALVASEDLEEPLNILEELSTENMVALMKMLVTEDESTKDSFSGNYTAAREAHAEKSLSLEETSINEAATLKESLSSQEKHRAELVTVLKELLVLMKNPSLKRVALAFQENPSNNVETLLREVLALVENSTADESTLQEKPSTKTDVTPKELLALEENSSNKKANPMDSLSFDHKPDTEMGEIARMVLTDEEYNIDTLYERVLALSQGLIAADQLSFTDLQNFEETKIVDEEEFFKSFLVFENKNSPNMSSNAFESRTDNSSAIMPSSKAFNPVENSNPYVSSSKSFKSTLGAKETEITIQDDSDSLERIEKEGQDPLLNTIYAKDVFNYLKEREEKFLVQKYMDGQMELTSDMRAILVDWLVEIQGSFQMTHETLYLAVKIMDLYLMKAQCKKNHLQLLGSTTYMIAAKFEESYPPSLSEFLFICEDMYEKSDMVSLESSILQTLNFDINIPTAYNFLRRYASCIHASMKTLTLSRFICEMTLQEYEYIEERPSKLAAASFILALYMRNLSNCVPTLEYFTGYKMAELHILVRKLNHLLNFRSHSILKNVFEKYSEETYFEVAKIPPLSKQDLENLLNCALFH


biological target: T1, Cyclin B3 (mouse (endogenous in MII oocytes)); test: affinity purification with mass spectrometry

Row | binding | Molecule
1 | binds | Itch (from UniProt Q8C863 1-864)
2 | binds | Ywhae (from UniProt P62259 1-255)
3 | binds | Ywhaz (from UniProt P63101 1-245)
4 | binds | Ywhag (protein, UniProt P61982 1-247) MVDREQLVQKARLAEQAERYDDMAAAMKNVTELNEPLSNEERNLLSVAYKNVVGARRSSWRVISSIEQKTSADGNEKKIEMVRAYREKIEKELEAVCQDVLSLLDNYLIKNCSETQYESKVFYLKMKGDYYRYLAEVATGEKRATVVESSEKAYSEAHEISKEHMQPTHPIRLGLALNYSVFYYEIQNAPEQACHLAKTAFDDAIAELDTLNEDSYKDSTLIMQLLRDNLTLWTSDQQDDDGGEGNN
5 | binds | Ywhab (protein, UniProt Q9CQV8 1-246) MTMDKSELVQKAKLAEQAERYDDMAAAMKAVTEQGHELSNEERNLLSVAYKNVVGARRSSWRVISSIEQKTERNEKKQQMGKEYREKIEAELQDICNDVLELLDKYLILNATQAESKVFYLKMKGDYFRYLSEVASGENKQTTVSNSQQAYQEAFEISKKEMQPTHPIRLGLALNFSVFYYEILNSPEKACSLAKTAFDEAIAELDTLNEESYKDSTLIMQLLRDNLTLWTSENQGDEGDAGEGEN
